No constants are given. Whether binding was seen depends on the method and setting. Binding seen in cells or lysates may run through a third protein. These calls come from enrichment with a bait or labelling near it, and not all partners need be listed.

Drawing on PMC8698288, this text covers binding for five molecules.

B1: Hemimethylated DNA binding domain-containing protein TGME49_210778 (protein, UniProt S8GS10 1-609)
chain: MEDFLSIAHGNPLDGPMAETPRWHPAEWEAVLGNMESAVLKIDFSQSLGNWASIREQSTFNVTMADSTVVCTHPQRRDDDLFMEFPQSTQNAKSNGLTPKRADAEPKRLVSAFPEMRDYLRTARLRWIVDRCFQFKDGDASEWTYEICVGKKVTQFAGNQKAGKTIGKTLFEWGTYKIGHDQLWANGTLTQIYGNGTGGRQTEVFFECLDQYPTVTAIEEVRESELRMWVGASMFCDFRPTNPTPPLLEALLRPLEGWCANFTTTGFWSYEYCHPDSLVQFHKDSSGDVRDPMFLLGTLHTSTPSSTFMWKTHASADFPMLRGKGAGVNTNSRPKFRFLPVQLVDFPSELNRGREEKPQQVLAMELTKGTLCDSADVQRSTRVLFECPDDFATLATHQVMKVMETSPCHHELLIHTPLVCPHPRLLPPRPKEPQQVNCVPVESHQLDSPHVSEANHVKVTAGTAVDPGLEAIPSSYLPDGKISLNGSHFGMRQYKRSRSSRKSPAFRVGRLVRHRWSKYTAVVLSWDRSCEAPPDWTAKVYEHYPESSSHKPHYLLLVDQAAVREPQLPLFAYVPEVALEPAPAGQGLFRHPLTSYFFHHFSTHSLTSN
B2: Uncharacterized protein TGME49_246990 (protein, UniProt S8G9E8 1-544)
chain: MRPWSLQTFVGKRRSRKGREPSEAEKSGRPGAEKRELPEPTAFPQGEEDADAPALAKPRSSASGLSSNMGGQGQSVLGEEPGALGGPESLREKAEAEPRDRTSHPRSLQSSASSKDPPRVRNDFSDSSRSRAEESQQSTRETVELSRKTTGRVKDKSQDGLPVSSSAASLKPGSESARGSAARRKPSLHGDLQSEASRVRRSKRSSESESGSDAPASRQSGELASADSRVGKPQSGRRNEERRRVLSGPDTEERQDAGEAGESAEGRPGVRQGKDGTLRVDRSASRDEGSGGRRRLSGSTRRSDDGGGARSTLSRDPIDDRSDAGSRAEGGRQRTRTSSSVLQEEGEGKRTETPEGRENASRDSDDKAFNAAMQPGTELKQLIETALRELDGLDKFLQRPDGVATTALEKTRAVHARVGRDTQRLMDVLEESKRAILEKAEKKRQANVSVKPDQAEQVQQALLDTEAREREKEKTGNLTTKLSKALGMKPTAAKRQLQRLAELRRMTADPSVAPAAPAKMAKATRRASSNVPKITAKNSGSVVV
B3: Uncharacterized protein TGME49_265390 (protein, UniProt S8GGY5 1-529)
chain: MASSEGRPSPSSPSSLPSSSPSFSPSLSSSLFSPSFASVTSLENPPGAPSDAGAASIVALPPSSLGDILSSFTRETRDPRREQREDPRREQRGEALEQARGEAGAAREERQDSHRESRDERERRDLPTSGSLSAVSAHAPLHVVDRSFLRVPLECALRAVKANSRSLYRDVGVVLAYVLKGKMATQLAESSSVEEKINRLDLLIEKLKKIRDKAQHGNEESRNFLLRCQLRVRRLAEEPDILHVHSKLDFSFATYGDRVAWVVYEYLARSGMSLTAELLKEKLDLEPFADGEVHQEILDVLGGLLRESTEEARQWVDAHRAKLKKIGSLFESELHVQHVLELLKKKDAKTAVAYLKANVGPEDFARCVDIRKVVTLTALLEDPPPQYAALFGIERWHRISCLFLHTSAQVYGFSVKPTLVALLQAGFSALKSSVCEEQKSASCPTCLPEWAEYVRQVPTPHRVQSFLICPISGEVMDADNPPLASPDGHVYSTNAVRALAAAAPDGKTVVCPKTKQPYPLERFTRIYVT
B4: Uncharacterized protein TGME49_206540 (protein, UniProt S8F8P1 1-1255)
chain: MALPSTPAVDRSVLPLNGLSPVQEESSSGPFPVDSCDRVFGLPTNSFASVLRRVSSFASQPALSLPSAFFSPSLRGSPSHSSTPAAASFRQAALCCVSTGCYIFLLGASLQPSVFPLFLLDQADDAGQLTSADAVSVSSPPSSLLPLCVALFCSCAPFALLFPLAVVWLFNAACAGLAALHLRRKQGGVVVAATLLDVRFPRSSRSAAEEPGSPDAACLALPPLWAKEASKFAWTDETGGPPVLRDNHDRRDVSLVSASTEGGLASMYAPPDVNQQTQRMSSDYFAKPSSSSSASSSSSSSSSSSSSSSSSSSSRQPEFVVRSRESPLTLAAAAPPDAKSRDEAIRLAGVSSKRRADGEGEREFRDSPSSRRGEEGRATEGANECHPLVQLTTSFEGSTVPPGDRGPSFFGQGNGCSVSSLVRSRQGSVVGVDSLASLSESDFDGASLLVSLGVPSQHSPGSRELRPGRANCGDKLNFKRSSRRRASREDSEPRVPEPPGLVFLRFCWTAAAAGARRFSRHLASWCRCFSRTVSGPLARRLVSLSGVSLAVCGSVFACLHELLLLLAFRVEGAKRVEMWTALASVSYAELPFLLLVGSCLRWWRPCLSCSRTLGVSLLLCANVLLCFSPLSLSPLPRASVADLARLLSNSSASLTSFTSSPFAGRLPASPLSSSISDDAFFLPRAPTAISESPLPSSLWNYEFQSSPSAGFTLTSAAGLAISRDGTSLTSTLPPPSSFSLRSSPLTVSSVSSSSSPSSSQSSSLSSSPSAPVSSSSPPPSPVSSSPPPSPVSSSSTPSSPVSSSFSISPSSPFPSVSSPASSVSSLSSSSSVAMPEKSSSSSPDSLLDSGKSPRGAIVPPATLPSPEALTTDFVEAYDWQKNEKTKSRISSPETSEAAPGLKPSRKNGEKRRDGEASSHSQLATKKDSGTGPAEMHAAAMLFALGALFASLVSSLSLALAIHTGLSVLTACILRFFTQGVMGCLGIVYGVAWGHWVDREGLASAMPPSSPLAAAAACVGACIFGLLATVSFFKSASLPVLPLSSGIRGGCWAIVALLALGLHHAPLPRPVVLLLLLALTGSLLFGWSCMRMEFSIANTPAPDEAGESTPRIFRLPASDKAFATSLCEGLLPAKGAASERDRRGSAERSTRADGGRETGDWDRDESPGWYRRGRAEEHRESVGEQYCAHEDDSIGPLPARCDTCGEDLQVEALLERSRSRVPVGYSGEFGRFDVLGESVGCEAVESECRVCAHDDQ
B5: Aminotransferase, putative (TGME49_264030) (protein, UniProt S8F550 1-636)
chain: MQFFHLFDSLNSPFVCAYRKRFFIGVFGRSQFVSTKQHFSMMPKFVRGRAAPMPETLEGVNSSCPAKTSNGSLPQSVAPAPSNPVNAENPPPQSAIATMETHCRENGSGTLLHRHRSHLADDVDMENRHRLSRQPTLSMCSLPERVVECKYAVRGVTVRRALELQEQLTKSPNCLNFKKLIFANIGDPQALGQRPISFYRQVMACVMYPPLVGLPLGCNRVELADIEPKNGQNTSFEENNSSSEEHTLFALDIVAKSRRYLQAMGSVGAYTHSQGHPLFRKDIAAWLTDRDGVATDPDTIFLTDGASSGIRLVLELLLRERSDGLLIPVPQYPLYAGLIVRLGGRVVPYYLEEETGWSFSLSAVREAMQDAKRKGICVRGIVVINPGNPTGTVLTEKEIREIINFCDTERLVLLADEVYQDNVYGNVPFISARKVLHQMDANVSLFSFHSSSKGLVGECGLRGGLLHVDTITEDVRLQMYKLVSMFMCGNTLGQLAITCVCTPPKPGDASYERFQRERLAIYDSMKSKAHLVYDQLNQIEGVSCQPIAGAVFGFPQIRIPPGALREAKKKGVEADLLFCLELLEATGIVTVPGSGFGQKHGTYHIRICILPPKHVLVDMLEKLKEFYAMFVKKYSE

The assay concerns the target FLAG-BirA*-MOB1 (Toxoplasma gondii MOB1 fused to the C-terminal end of FLAG-BirA*) (Toxoplasma gondii). The assay can be described thus: proximity labelling; BioID: FLAG-BirA*-MOB1 (control: FLAG-BirA*) tachyzoites in HFF cells, 150 µM biotin for 56 h; lysate in sucrose-based lysis buffer on agarose-streptavidin beads overnight at 18 °C; nanoLC-MS/MS; three biological replicates.
Consider B1, for which the binding result was “binds”. The entry for B2 is “binds”; for B3 it is “binds”. B4: the binding result is recorded as “binds”. Under B5 stands “binds”.
